# Reference: the supplement of paper PMC12823440, “Inhibitors supercharge kinase turnover through native proteolytic circuits” (Nature, 2025)
# Chains of the proteins cited; added tags and fusions are not shown. Lines headed by an entry give the natural chain unless they say otherwise; changes in a name come on top.
# UniProt Q15208: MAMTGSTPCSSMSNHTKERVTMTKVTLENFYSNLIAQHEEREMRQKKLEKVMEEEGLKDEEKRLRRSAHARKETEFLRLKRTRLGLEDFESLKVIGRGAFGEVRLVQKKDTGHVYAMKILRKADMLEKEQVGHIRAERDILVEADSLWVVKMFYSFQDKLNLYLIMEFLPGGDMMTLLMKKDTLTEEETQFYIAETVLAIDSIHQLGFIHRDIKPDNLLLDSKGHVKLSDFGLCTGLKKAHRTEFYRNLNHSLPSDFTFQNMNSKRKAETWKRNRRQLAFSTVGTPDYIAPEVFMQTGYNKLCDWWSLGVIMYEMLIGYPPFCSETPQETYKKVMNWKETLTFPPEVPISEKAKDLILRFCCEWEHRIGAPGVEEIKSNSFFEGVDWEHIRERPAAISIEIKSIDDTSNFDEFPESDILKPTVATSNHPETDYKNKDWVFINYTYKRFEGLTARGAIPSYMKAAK
# UniProt P42680: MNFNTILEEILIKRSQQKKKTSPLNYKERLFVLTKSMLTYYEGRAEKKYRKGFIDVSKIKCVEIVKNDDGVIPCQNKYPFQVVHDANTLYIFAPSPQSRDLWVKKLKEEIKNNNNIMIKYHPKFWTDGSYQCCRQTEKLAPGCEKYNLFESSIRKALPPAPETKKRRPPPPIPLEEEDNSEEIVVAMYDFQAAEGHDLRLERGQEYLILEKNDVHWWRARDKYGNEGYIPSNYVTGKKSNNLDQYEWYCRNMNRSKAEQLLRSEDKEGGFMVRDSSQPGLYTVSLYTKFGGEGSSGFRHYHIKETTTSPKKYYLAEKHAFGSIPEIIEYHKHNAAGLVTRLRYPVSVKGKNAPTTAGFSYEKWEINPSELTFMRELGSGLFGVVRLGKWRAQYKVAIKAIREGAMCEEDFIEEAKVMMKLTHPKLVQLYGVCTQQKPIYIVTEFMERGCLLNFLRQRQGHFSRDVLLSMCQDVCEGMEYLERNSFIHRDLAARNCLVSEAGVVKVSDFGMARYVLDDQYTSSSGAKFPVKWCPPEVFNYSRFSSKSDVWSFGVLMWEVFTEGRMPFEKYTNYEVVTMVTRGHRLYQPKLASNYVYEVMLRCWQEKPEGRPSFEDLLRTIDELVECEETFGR
# UniProt P29597: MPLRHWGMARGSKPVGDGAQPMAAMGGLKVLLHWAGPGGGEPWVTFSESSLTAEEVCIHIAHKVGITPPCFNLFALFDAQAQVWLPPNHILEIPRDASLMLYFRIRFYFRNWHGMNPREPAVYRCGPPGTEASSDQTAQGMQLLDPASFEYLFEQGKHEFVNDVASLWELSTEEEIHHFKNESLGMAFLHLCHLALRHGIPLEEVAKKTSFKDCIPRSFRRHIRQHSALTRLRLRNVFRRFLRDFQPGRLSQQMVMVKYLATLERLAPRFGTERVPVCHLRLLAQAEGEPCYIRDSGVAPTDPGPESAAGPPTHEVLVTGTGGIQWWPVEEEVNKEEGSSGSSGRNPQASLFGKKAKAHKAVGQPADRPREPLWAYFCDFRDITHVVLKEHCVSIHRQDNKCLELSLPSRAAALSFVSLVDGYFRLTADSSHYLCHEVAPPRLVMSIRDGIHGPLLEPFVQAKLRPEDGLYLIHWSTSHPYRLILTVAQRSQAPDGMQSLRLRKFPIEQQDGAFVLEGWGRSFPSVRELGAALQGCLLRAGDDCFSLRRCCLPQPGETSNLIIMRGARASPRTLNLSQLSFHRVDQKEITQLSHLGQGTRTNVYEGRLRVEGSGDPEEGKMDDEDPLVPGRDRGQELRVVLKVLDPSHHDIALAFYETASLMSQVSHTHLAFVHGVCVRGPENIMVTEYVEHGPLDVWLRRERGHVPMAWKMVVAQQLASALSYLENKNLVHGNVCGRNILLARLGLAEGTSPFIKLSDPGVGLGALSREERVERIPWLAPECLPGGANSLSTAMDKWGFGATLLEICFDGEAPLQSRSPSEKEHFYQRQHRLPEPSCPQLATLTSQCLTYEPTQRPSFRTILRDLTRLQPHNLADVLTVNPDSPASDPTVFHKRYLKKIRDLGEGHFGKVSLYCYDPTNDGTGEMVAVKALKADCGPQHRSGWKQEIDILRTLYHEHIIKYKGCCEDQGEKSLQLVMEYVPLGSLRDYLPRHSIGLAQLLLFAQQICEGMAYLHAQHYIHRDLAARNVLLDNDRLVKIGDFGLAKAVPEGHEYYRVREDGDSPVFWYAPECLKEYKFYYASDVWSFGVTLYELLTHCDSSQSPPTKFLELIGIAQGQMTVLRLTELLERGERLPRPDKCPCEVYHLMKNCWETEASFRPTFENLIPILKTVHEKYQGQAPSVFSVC
# UniProt Q6PHR2: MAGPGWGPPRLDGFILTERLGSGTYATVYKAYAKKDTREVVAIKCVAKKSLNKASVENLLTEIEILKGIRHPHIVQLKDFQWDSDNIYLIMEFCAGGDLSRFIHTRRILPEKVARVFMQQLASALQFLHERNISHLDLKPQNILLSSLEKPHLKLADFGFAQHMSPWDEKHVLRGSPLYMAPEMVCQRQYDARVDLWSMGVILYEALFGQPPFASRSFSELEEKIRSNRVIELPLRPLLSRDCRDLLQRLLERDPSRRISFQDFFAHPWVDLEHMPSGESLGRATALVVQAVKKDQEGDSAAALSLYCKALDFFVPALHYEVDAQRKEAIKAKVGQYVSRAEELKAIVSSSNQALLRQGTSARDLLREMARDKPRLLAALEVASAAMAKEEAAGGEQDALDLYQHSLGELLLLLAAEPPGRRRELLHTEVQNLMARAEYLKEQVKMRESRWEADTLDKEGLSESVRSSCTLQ
# UniProt P07947, whole entry, looked up: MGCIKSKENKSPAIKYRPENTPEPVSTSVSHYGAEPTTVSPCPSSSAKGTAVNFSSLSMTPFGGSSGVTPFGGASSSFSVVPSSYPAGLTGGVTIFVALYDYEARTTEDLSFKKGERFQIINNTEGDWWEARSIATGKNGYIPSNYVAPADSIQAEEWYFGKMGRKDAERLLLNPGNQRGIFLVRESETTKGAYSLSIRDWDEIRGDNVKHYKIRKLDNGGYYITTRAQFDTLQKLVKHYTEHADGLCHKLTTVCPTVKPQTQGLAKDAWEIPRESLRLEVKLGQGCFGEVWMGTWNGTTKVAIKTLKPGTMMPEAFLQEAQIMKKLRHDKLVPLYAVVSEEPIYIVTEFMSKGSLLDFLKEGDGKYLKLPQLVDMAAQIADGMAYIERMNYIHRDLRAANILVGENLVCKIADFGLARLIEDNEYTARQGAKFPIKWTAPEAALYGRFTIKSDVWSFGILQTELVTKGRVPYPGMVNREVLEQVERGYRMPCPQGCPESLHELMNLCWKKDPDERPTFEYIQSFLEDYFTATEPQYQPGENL
# UniProt P43403: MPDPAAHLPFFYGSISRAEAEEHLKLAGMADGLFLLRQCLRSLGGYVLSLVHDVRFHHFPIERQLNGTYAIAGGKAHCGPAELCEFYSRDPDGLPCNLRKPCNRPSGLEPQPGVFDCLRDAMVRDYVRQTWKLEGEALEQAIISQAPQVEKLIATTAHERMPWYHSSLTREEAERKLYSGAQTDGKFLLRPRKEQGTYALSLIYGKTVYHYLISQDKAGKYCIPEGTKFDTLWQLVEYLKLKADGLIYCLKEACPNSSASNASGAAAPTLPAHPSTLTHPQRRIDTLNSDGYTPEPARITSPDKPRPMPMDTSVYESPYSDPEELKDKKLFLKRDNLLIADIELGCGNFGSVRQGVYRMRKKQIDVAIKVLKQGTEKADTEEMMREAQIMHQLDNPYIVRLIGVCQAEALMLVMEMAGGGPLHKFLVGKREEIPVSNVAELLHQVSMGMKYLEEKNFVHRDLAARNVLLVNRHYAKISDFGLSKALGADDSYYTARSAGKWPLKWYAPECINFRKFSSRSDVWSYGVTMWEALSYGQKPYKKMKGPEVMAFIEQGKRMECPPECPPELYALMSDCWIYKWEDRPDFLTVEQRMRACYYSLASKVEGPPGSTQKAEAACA
# UniProt P11802: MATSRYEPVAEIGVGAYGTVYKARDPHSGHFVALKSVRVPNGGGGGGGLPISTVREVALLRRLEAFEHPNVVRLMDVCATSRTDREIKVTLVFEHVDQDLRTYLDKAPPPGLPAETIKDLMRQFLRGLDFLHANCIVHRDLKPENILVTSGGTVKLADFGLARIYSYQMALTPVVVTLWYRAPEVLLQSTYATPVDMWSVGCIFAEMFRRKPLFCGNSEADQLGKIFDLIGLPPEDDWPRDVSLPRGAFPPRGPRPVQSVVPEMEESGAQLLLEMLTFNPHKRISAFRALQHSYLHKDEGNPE
# UniProt P50613: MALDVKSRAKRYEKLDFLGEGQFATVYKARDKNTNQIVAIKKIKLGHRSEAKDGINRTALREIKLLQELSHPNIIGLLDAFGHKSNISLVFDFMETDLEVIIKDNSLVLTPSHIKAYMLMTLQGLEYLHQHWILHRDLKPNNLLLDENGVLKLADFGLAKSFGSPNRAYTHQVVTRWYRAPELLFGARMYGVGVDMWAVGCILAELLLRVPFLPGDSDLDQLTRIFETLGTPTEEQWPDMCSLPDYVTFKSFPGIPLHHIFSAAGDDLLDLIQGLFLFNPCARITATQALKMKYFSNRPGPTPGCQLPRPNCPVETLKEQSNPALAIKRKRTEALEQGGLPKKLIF
# UniProt P50750, whole entry: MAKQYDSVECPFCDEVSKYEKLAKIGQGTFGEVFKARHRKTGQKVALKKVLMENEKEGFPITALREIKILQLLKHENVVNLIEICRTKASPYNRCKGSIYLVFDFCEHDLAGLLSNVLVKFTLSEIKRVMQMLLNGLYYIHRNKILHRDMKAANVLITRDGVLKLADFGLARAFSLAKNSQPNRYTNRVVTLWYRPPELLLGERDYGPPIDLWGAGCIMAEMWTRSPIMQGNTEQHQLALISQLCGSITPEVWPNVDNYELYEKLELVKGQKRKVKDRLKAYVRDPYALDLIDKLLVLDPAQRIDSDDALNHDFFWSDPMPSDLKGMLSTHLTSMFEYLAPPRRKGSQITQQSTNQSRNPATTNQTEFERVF
# Counter-ions that a name gives are not always drawn. Some of the results follow. The calls rarely recur for the same compound in another form.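 In K562 cells expressing nanoluciferase-fused kinases, luminescence was recorded at 4 h intervals between 2 and 18 h, normalized as percent of control with DMSO at 100% and a positive control at 0%. A significant (2 sigma) signal drop marks a time point as decreased. The authors' rule for a hit is not shown and takes in more than the number of time points.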
# Tests used:
# Conditions in all cases: K562, 2-18 h
# STK38 = STK38 (UniProt Q15208); assay: kinase-Nluc reporter destabilization hit call (1 = scored as downregulated) (binary); higher = compound decreases kinase abundance
# SYK = SYK (UniProt P43405); assay: as above
# TEC = TEC (UniProt P42680); assay: as above
# TYK2 = TYK2 (UniProt P29597); assay: as above
# ULK3 = ULK3 (UniProt Q6PHR2); assay: as above
# YES1 = YES1 (UniProt P07947); assay: as above
# ZAK = ZAK (UniProt Q9NYL2); assay: as above
# ZAP70 = ZAP70 (UniProt P43403); assay: as above
# CDK4 = CDK4 (UniProt P11802); assay: number of time points (of 4; 2 h point missing) at which kinase-Nluc abundance scored as decreased, DMSO-normalised (count); higher = more persistent destabilization
# CDK7 = CDK7 (UniProt P50613); assay: as above
# CDK9 = CDK9 (UniProt P50750); assay: as above
SMILES,kinase-Nluc reporter destabilization hit call (STK38; 2.5 µM),kinase-Nluc reporter destabilization hit call (SYK; 2.5 µM),kinase-Nluc reporter destabilization hit call (TEC; 2.5 µM),kinase-Nluc reporter destabilization hit call (TYK2; 2.5 µM),kinase-Nluc reporter destabilization hit call (ULK3; 2.5 µM),kinase-Nluc reporter destabilization hit call (YES1; 2.5 µM),kinase-Nluc reporter destabilization hit call (ZAK; 2.5 µM),kinase-Nluc reporter destabilization hit call (ZAP70; 2.5 µM),number of time points (CDK4; 2.5 µM),number of time points (CDK7; 2.5 µM),number of time points (CDK9; 2.5 µM),kinase-Nluc reporter destabilization hit call (STK38; 10 µM),kinase-Nluc reporter destabilization hit call (SYK; 10 µM),kinase-Nluc reporter destabilization hit call (TEC; 10 µM),kinase-Nluc reporter destabilization hit call (TYK2; 10 µM),kinase-Nluc reporter destabilization hit call (ULK3; 10 µM),kinase-Nluc reporter destabilization hit call (YES1; 10 µM),kinase-Nluc reporter destabilization hit call (ZAK; 10 µM),kinase-Nluc reporter destabilization hit call (ZAP70; 10 µM),number of time points (CDK4; 10 µM),number of time points (CDK7; 10 µM),number of time points (CDK9; 10 µM)
O=C(Nc1ccncc1)Nc1ccc(-c2nc(N3CCOCC3)nc(N3C4CCC3COC4)n2)cc1 [PKI-179 (hydrochloride)],inactive: 0,inactive: 0,inactive: 0,inactive: 0,inactive: 0,inactive: 0,inactive: 0,inactive: 0,0,3,3,–,–,–,–,–,–,–,–,–,–,–
O=C(Nc1ccncc1)Nc1ccc(-c2nc(N3CCOCC3)nc(N3C4CCC3COC4)n2)cc1,–,–,–,–,–,–,–,–,–,–,–,inactive: 0,inactive: 0,inactive: 0,inactive: 0,inactive: 0,inactive: 0,inactive: 0,inactive: 0,0,3,0
CN(C)C(=O)c1cc2cnc(Nc3ccc(N4CCNCC4)cn3)nc2n1C1CCCC1 [Ribociclib hydrochloride],inactive: 0,inactive: 0,inactive: 0,inactive: 0,inactive: 0,inactive: 0,inactive: 0,inactive: 0,0,0,0,–,–,–,–,–,–,–,–,–,–,–
COc1ccc2c(c1)C(c1ccc(F)cc1)=C(CN1CCCC1)CO2,–,–,–,–,–,–,–,–,–,–,–,inactive: 0,inactive: 0,inactive: 0,inactive: 0,inactive: 0,inactive: 0,inactive: 0,inactive: 0,0,0,0
O=C1Nc2ccccc2/C1=C/c1ccccn1 [(E/Z)-GSK-3β inhibitor 1],–,–,–,–,–,–,–,–,–,–,–,inactive: 0,inactive: 0,inactive: 0,inactive: 0,inactive: 0,inactive: 0,inactive: 0,inactive: 0,0,0,0
C/C=C1\C(=O)C[C@H]2[C@@H]3CCC4=CC(=O)CC[C@]4(C)[C@H]3CC[C@]12C [Guggulsterone],–,–,–,–,–,–,–,–,–,–,–,inactive: 0,inactive: 0,inactive: 0,inactive: 0,inactive: 0,inactive: 0,inactive: 0,inactive: 0,0,0,0
C=CC(=O)Nc1cc2c(Nc3ccc(F)c(Cl)c3)ncnc2cc1C#CC(C)(C)N1CCN(C)CC1 [AV-412 (free base)],inactive: 0,inactive: 0,inactive: 0,inactive: 0,inactive: 0,inactive: 0,inactive: 0,inactive: 0,0,2,1,–,–,–,–,–,–,–,–,–,–,–
CC(=O)c1c(C)c2cnc(Nc3ccc(N4CCNCC4)cn3)nc2n(C2CCCC2)c1=O [Palbociclib (monohydrochloride)],–,–,–,–,–,–,–,–,–,–,–,inactive: 0,inactive: 0,inactive: 0,inactive: 0,inactive: 0,inactive: 0,inactive: 0,inactive: 0,0,0,0
N=C(N)NC(=O)c1nc(Cl)c(N)nc1N [Amiloride hydrochloride dihydrate],–,–,–,–,–,–,–,–,–,–,–,inactive: 0,inactive: 0,inactive: 0,inactive: 0,inactive: 0,inactive: 0,inactive: 0,inactive: 0,0,0,0
Cn1ncc(Cl)c1-c1cc(C(=O)N[C@H](CN)Cc2cccc(F)c2)sc1Cl [Afuresertib],–,–,–,–,–,–,–,–,–,–,–,inactive: 0,inactive: 0,inactive: 0,inactive: 0,inactive: 0,inactive: 0,inactive: 0,inactive: 0,0,0,0
N#CC[C@H](C1CCCC1)n1cc(-c2ncnc3[nH]ccc23)cn1 [Ruxolitinib (phosphate)],–,–,–,–,–,–,–,–,–,–,–,inactive: 0,inactive: 0,inactive: 0,inactive: 0,inactive: 0,inactive: 0,inactive: 0,inactive: 0,0,0,0
Nc1cncc(-c2cn3ccnc3c(Nc3ccc(N4CCN(C5COC5)CC4)cc3)n2)n1 [Lanraplenib],–,–,–,–,–,–,–,–,–,–,–,inactive: 0,inactive: 0,inactive: 0,inactive: 0,inactive: 0,inactive: 0,inactive: 0,inactive: 0,0,0,0
CC(=O)N[C@H](Cc1ccc(O)cc1)C(=O)N[C@H](CCCN=C(N)N)C(=O)N[C@H](Cc1ccccc1)C(N)=O,–,–,–,–,–,–,–,–,–,–,–,inactive: 0,inactive: 0,inactive: 0,inactive: 0,inactive: 0,inactive: 0,inactive: 0,inactive: 0,0,0,0
C[C@H](CCC(=O)NCCS(=O)(=O)O)[C@H]1CC[C@H]2[C@@H]3[C@@H](O)C[C@@H]4C[C@H](O)CC[C@]4(C)[C@H]3CC[C@]12C [Tauroursodeoxycholate (sodium)],–,–,–,–,–,–,–,–,–,–,–,inactive: 0,inactive: 0,inactive: 0,inactive: 0,inactive: 0,inactive: 0,inactive: 0,inactive: 0,0,0,0

# As entered above.
# For number of time points (CDK7; 10 µM), CC(=O)c1c(C)c2cnc(Nc3ccc(N4CCNCC4)cn3)nc2n(C2CCCC2)c1=O [Palbociclib (monohydrochloride)] has the entry 0
# For kinase-Nluc reporter destabilization hit call (STK38; 10 µM), Nc1cncc(-c2cn3ccnc3c(Nc3ccc(N4CCN(C5COC5)CC4)cc3)n2)n1 [Lanraplenib] has the entry inactive: 0
